From the supplement of paper PMC11006884
What follows is the remainder of the data, with few or none of the targets with a hit. Single values of this set are uncertain. This is a selection; strong and weak results do not stand in their true shares.

Protein sequences, listed by entry. Tags and fused reporters are not part of them. Lines headed by an entry give the natural chain unless they say otherwise; changes in a name come on top.
UniProt Q9NWS0, whole entry: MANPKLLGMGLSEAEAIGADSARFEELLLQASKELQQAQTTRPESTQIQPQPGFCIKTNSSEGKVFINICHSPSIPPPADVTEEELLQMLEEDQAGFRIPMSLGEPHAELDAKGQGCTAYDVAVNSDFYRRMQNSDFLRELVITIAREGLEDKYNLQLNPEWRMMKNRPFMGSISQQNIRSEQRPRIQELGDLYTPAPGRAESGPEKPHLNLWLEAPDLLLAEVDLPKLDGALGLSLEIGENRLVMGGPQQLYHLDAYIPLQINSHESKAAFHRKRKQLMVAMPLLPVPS
UniProt Q9UGP4: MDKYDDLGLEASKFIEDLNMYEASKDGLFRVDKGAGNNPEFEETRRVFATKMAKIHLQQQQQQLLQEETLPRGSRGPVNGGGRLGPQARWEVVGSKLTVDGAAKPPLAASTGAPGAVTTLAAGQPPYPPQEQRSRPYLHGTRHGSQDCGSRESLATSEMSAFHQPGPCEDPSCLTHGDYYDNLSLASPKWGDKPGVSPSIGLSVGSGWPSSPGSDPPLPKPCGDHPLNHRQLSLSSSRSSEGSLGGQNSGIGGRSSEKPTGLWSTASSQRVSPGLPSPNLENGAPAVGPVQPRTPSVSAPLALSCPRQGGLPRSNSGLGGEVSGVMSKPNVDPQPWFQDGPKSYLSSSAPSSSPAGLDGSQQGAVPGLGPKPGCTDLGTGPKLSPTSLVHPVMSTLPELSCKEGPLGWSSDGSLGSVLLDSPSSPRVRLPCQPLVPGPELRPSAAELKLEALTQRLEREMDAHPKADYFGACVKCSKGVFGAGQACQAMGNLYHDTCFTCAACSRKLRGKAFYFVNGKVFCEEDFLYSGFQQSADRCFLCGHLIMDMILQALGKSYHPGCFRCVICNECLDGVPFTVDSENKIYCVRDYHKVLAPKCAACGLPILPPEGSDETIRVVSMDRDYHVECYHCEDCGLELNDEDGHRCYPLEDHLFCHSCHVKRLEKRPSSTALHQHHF
UniProt Q9NVH1: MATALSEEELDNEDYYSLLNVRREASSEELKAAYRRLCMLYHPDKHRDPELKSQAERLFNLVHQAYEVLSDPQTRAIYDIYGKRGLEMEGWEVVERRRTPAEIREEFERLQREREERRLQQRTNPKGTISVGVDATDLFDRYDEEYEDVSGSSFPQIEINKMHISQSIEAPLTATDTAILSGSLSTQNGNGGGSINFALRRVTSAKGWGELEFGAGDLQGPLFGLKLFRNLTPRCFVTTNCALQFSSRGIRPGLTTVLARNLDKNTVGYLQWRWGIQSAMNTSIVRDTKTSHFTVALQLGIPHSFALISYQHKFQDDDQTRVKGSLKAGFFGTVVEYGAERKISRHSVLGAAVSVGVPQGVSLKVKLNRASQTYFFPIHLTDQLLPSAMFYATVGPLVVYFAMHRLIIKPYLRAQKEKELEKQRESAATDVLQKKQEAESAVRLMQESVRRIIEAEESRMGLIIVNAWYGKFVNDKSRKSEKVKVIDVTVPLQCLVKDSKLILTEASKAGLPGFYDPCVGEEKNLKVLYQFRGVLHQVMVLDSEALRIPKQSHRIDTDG
UniProt Q9P2I0: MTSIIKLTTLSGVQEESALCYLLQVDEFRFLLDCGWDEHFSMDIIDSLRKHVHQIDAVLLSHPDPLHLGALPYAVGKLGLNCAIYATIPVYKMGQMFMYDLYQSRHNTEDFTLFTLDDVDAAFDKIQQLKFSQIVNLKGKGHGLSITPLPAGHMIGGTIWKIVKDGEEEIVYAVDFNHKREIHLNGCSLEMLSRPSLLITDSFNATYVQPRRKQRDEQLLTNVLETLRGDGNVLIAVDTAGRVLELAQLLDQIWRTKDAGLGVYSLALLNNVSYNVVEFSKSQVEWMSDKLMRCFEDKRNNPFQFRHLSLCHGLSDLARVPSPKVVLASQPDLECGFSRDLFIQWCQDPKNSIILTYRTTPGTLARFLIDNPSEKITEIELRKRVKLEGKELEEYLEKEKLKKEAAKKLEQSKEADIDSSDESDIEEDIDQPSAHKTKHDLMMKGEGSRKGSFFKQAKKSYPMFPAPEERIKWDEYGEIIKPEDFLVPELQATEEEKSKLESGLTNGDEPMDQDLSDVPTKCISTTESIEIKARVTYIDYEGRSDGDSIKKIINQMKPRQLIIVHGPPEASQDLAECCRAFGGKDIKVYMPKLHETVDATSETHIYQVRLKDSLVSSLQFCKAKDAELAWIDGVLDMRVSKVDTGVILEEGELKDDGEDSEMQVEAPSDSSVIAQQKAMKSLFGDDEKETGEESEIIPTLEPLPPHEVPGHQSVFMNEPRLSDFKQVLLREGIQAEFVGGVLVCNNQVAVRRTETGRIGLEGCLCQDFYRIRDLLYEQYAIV
UniProt Q9NYH9: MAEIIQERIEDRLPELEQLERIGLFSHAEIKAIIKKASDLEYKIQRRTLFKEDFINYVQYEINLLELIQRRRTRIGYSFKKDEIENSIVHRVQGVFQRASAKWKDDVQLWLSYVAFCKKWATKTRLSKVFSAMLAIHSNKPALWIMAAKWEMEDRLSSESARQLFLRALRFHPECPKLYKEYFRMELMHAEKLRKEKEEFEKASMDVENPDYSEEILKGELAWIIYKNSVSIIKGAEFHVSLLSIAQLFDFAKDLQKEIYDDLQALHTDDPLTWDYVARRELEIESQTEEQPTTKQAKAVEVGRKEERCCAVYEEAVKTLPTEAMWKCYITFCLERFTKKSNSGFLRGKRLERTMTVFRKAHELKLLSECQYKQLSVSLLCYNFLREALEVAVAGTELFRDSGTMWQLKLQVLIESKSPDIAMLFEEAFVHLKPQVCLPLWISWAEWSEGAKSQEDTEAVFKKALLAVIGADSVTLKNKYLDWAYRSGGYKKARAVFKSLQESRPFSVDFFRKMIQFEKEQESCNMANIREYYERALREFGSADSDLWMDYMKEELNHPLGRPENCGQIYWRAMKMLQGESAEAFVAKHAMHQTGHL
UniProt Q9UGI8: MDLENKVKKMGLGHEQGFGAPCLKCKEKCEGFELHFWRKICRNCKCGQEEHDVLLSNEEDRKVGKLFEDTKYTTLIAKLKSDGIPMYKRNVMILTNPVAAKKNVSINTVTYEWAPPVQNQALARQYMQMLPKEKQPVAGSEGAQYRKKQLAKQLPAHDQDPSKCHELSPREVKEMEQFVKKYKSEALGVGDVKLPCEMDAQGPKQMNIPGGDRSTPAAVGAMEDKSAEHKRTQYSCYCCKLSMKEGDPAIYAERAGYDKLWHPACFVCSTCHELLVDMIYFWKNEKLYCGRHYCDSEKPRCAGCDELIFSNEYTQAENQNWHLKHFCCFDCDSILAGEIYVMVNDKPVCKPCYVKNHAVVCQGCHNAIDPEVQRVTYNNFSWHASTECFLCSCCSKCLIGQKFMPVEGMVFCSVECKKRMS
UniProt Q9NZJ9: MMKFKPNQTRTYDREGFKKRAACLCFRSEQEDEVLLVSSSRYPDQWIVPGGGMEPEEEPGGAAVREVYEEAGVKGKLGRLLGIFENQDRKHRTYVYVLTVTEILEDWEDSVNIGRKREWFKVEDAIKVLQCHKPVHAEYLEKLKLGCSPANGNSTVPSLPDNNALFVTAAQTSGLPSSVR
UniProt Q9NX46: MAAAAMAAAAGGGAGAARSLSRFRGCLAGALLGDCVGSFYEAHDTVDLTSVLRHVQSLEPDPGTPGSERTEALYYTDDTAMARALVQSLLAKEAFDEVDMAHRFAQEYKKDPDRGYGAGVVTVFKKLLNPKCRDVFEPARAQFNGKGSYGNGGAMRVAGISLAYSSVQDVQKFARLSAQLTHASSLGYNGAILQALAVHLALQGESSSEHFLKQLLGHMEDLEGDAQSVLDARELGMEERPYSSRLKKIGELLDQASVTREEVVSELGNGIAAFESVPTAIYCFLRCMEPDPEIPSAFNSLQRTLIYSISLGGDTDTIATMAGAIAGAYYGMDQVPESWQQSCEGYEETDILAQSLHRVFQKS
UniProt Q9NV31: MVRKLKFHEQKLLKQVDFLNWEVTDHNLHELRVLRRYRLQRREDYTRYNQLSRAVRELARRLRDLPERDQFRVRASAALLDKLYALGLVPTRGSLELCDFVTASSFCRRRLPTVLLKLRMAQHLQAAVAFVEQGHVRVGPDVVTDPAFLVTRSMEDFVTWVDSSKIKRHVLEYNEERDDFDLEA
UniProt Q9UDR5: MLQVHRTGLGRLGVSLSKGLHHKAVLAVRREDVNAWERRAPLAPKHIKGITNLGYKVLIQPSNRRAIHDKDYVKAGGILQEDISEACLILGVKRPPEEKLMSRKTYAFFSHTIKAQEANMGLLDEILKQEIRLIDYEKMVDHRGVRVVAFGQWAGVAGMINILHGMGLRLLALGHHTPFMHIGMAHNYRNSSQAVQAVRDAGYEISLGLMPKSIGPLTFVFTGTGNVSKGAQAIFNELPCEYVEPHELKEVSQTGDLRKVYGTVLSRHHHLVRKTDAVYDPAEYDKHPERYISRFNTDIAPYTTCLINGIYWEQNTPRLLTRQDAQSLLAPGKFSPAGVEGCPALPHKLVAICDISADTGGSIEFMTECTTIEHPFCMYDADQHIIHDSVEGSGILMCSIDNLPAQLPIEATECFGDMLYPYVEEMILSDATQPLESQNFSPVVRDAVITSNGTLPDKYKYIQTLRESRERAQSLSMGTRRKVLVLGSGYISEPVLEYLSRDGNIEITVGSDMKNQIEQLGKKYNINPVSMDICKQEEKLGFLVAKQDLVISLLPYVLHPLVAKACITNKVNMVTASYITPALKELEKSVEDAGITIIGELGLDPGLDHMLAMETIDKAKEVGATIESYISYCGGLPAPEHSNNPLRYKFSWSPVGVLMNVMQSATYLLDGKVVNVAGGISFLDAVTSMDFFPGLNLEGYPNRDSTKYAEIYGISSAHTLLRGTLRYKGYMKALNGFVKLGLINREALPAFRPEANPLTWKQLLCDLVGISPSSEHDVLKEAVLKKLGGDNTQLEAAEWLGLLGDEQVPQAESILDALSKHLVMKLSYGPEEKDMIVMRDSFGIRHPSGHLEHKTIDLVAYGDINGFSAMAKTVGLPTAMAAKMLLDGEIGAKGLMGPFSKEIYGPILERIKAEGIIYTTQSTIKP
UniProt Q9P2J5: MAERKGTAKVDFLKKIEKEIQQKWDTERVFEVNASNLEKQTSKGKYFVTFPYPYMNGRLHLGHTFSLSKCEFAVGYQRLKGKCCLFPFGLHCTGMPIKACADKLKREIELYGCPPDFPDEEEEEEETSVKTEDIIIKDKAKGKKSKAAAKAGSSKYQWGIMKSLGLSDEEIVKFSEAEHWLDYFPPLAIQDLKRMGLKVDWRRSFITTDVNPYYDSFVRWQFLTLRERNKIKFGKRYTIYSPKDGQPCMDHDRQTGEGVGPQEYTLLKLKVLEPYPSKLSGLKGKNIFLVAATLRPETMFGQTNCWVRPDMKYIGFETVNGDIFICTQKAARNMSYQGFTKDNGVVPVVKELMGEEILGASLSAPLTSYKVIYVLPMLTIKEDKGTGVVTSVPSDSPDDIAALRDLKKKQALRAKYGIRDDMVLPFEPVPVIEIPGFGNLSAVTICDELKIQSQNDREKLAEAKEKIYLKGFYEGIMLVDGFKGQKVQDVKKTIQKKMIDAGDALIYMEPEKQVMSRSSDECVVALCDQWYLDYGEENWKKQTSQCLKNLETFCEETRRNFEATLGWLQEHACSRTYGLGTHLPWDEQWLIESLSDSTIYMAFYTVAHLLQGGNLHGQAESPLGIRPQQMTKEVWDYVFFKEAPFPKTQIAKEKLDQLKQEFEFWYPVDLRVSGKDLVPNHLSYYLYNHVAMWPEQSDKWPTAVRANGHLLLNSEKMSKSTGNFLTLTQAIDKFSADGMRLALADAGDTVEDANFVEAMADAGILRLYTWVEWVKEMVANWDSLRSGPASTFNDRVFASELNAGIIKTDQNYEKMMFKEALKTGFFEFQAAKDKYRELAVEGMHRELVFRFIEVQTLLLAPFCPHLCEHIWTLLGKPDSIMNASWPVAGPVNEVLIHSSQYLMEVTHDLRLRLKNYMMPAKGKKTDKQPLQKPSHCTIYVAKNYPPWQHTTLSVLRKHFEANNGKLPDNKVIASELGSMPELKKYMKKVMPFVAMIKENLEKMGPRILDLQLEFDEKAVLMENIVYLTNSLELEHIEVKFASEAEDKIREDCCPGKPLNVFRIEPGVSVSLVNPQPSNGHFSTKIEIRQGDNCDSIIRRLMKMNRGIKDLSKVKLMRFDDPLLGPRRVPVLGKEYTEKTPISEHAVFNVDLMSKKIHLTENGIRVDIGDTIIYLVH

These targets were tested with COC(=O)/C=C/c1ccccc1 [methyl cinnamate] (assay: log2 ratio of iodoacetamide-alkyne labeling of the cysteine site, DMSO over compound (competition); higher = stronger covalent engagement of the cysteine by the compound, active = 1 or more). Conditions: 500 µM; treatment time 1 h; system: HEK293T cell lysate.
Procedure, shortened: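 HEK293T lysate (2 mg/mL) was incubated with electrophile (500 µM) or vehicle for 1 h at ambient temperature and then with iodoacetamide alkyne for 1 h. Labelled proteins were clicked to sCIP-TMT reagents, pooled, digested, enriched on streptavidin and measured by Orbitrap Eclipse LC-MS/MS with FAIMS, with FragPipe quantification. The per-cysteine log2 competition ratio is mean control-channel reporter intensity over mean compound-channel reporter intensity. Across three replicates with duplicate channels, cysteines quantified in only one replicate were excluded.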

log2 ratio of iodoacetamide-alkyne labeling, inactive:
STK39 C237 (UniProt Q9UEW8) 0.0232
PIH1D1 C117 (UniProt Q9NWS0) -0.036
LIMD1 C148 (UniProt Q9UGP4) 0.189
PNPO C72 (UniProt Q9NVS9) -0.341
DNAJC11 C235 (UniProt Q9NVH1) 0.0577
RRBP1 C892 (UniProt Q9P2E9) 0.137
BCCIP C141 (UniProt Q9P287) 0.156
COPG2 C446 (UniProt Q9UBF2) 0.0844
CDKN2AIP C178 (UniProt Q9NXV6) 0.34
NXF1 C252 (UniProt Q9UBU9) 0.196
MTCH1 C385 (UniProt Q9NZJ7) 0.0148
UniProt Q9NWV8_C222 0.249
UniProt Q9P289_C392 0.252
LRWD1 C88 (UniProt Q9UFC0) -0.0924
UniProt Q9NYL2_C285 0.135
UniProt Q9UBD5_C621 -0.034
CPSF2 C621 (UniProt Q9P2I0) -0.0328
UniProt Q9NWR8_C324 0.0898
UTP6 C309 (UniProt Q9NYH9) 0.0434
TES C361 (UniProt Q9UGI8) 0.0488
PPP4R2 C296 (UniProt Q9NY27) 0.183
NUDT4 C131 (UniProt Q9NZJ9) 0.29
ATAD3A C563 (UniProt Q9NVI7) 0.0556
COPG2 C420 (UniProt Q9UBF2) -0.178
ADPRHL2 C132 (UniProt Q9NX46) 0.172
LYAR C51 (UniProt Q9NX58) 0.16
IMP3 C107 (UniProt Q9NV31) 0.172
ZMYM2 C1331 (UniProt Q9UBW7) 0.191
AASS C305 (UniProt Q9UDR5) 0.0113
COQ3 C186 (UniProt Q9NZJ6) 0.235
LARS C573 (UniProt Q9P2J5) 0.117
UniProt Q9NYV4_C1009 0.305
ALKBH4 C194 (UniProt Q9NXW9) -0.0409
LIMD1 C374 (UniProt Q9UGP4) 0.354
CPSF2 C577 (UniProt Q9P2I0) 0.00113
LIMA1 C316 (UniProt Q9UHB6) 0.178
TJP2 C601 (UniProt Q9UDY2) 0.0936

Pulled one by one from the list above:
log2 ratio of iodoacetamide-alkyne labeling, inactive:
LRWD1 C88 (UniProt Q9UFC0) -0.0924
CPSF2 C577 (UniProt Q9P2I0) 0.00113
ATAD3A C563 (UniProt Q9NVI7) 0.0556
